Measurements reported in PubChem BioAssay AID1224831 (NIAID, 2016)
Here is an unselected part of about 3,500 deposited reagents. 731 of all reagents (21%) count as active. 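Active means either lowered or raised reporter signal; the gene-median score did not drive the per-siRNA calls.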 Entries without a mark were called inactive. Reagents against one gene are numbered here.

Screen: 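Confirming genome-wide hits on LPS-triggered TNF-alpha induction with independent siRNA sequences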 (follow-up of hits)
System: human THP-1 B5 monocytic leukaemia cells carrying a TNF promoter luciferase reporter, made macrophage-like with PMA
Knock-down reagent: single siRNA against human genes, 50 nM
Duration: about 68 h of knock-down, then 4 h LPS
Conditions: LPS (Salmonella minnesota, TLR-grade) at 10 ng/ml for 4 h; PMA 5 ng/ml present during knock-down
Detection: 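TNF promoter reporter read as dual luciferase ratio after 4 h LPS, normalised per plate to its median, given as replicate mean robust z-score per siRNA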
Direction: TNF reporter z-score: higher = stronger LPS-induced TNF reporter signal; z-score, median over gene's siRNAs: higher = stronger TNF reporter signal across the gene's siRNAs
Active means: 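Active when the replicate mean z-score is about -1 or lower, or about 1.5 or higher; lowered and raised TNF reporter signal both count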
Meaning of the calls: active = changed TNF reporter (either direction); inactive = little change

gene knocked down	reagent	TNF reporter z-score, replicate mean	z-score, median over gene's siRNAs
TSPOAP1 (GeneID 9256)	1	-0.77	-0.685
TSPOAP1 (GeneID 9256)	2	-1.24 (active)	-0.685
TSPOAP1 (GeneID 9256)	3	-0.6	-0.685
TSPOAP1 (GeneID 9256)	4	-1.23 (active)	-0.685
TSPOAP1 (GeneID 9256)	5	-0.38	-0.685
TSPOAP1 (GeneID 9256)	6	2.07 (active)	-0.685
C1orf226 (GeneID 400793)	1	2.44 (active)	1.05
C1orf226 (GeneID 400793)	2	-0.08	1.05
C1orf226 (GeneID 400793)	3	1.85 (active)	1.05
C1orf226 (GeneID 400793)	4	-0.41	1.05
C1orf226 (GeneID 400793)	5	0.26	1.05
C1orf226 (GeneID 400793)	6	3.12 (active)	1.05
ZNHIT3 (GeneID 9326)	1	-1.09 (active)	-0.23
ZNHIT3 (GeneID 9326)	2	-0.84	-0.23
ZNHIT3 (GeneID 9326)	3	1.12	-0.23
ZNHIT3 (GeneID 9326)	4	0.38	-0.23
ZNHIT3 (GeneID 9326)	5	-1.31 (active)	-0.23
ZNHIT3 (GeneID 9326)	6	4.05 (active)	-0.23
POU2F1 (GeneID 5451)	1	0.02	0.38
POU2F1 (GeneID 5451)	2	0.59	0.38
POU2F1 (GeneID 5451)	3	-0.07	0.38
POU2F1 (GeneID 5451)	4	0.17	0.38
POU2F1 (GeneID 5451)	5	1.16	0.38
POU2F1 (GeneID 5451)	6	0.92	0.38
NCAPG2 (GeneID 54892)	1	-0.27	0.72
NCAPG2 (GeneID 54892)	2	1.77 (active)	0.72
NCAPG2 (GeneID 54892)	3	-0.08	0.72
NCAPG2 (GeneID 54892)	4	1.52 (active)	0.72
NCAPG2 (GeneID 54892)	5	-0.18	0.72
NCAPG2 (GeneID 54892)	6	4.16 (active)	0.72
SAMD1 (GeneID 90378)	1	-0.02	-0.325
SAMD1 (GeneID 90378)	2	-0.03	-0.325
SAMD1 (GeneID 90378)	3	-0.37	-0.325
SAMD1 (GeneID 90378)	4	-0.44	-0.325
SAMD1 (GeneID 90378)	5	-0.28	-0.325
SAMD1 (GeneID 90378)	6	-1.43 (active)	-0.325
UBALD1 (GeneID 124402)	1	1.05	0.53
UBALD1 (GeneID 124402)	2	-0.15	0.53
UBALD1 (GeneID 124402)	3	1.6 (active)	0.53
UBALD1 (GeneID 124402)	4	-0.17	0.53
UBALD1 (GeneID 124402)	5	1.8 (active)	0.53
UBALD1 (GeneID 124402)	6	0.01	0.53
RPL23 (GeneID 9349)	1	-0.02	0.305
RPL23 (GeneID 9349)	2	0.93	0.305
RPL23 (GeneID 9349)	3	0.17	0.305
RPL23 (GeneID 9349)	4	-0.31	0.305
RPL23 (GeneID 9349)	5	2.12 (active)	0.305
RPL23 (GeneID 9349)	6	0.44	0.305
HR (GeneID 55806)	1	0.27	-0.45
HR (GeneID 55806)	2	-1.39 (active)	-0.45
HR (GeneID 55806)	3	-0.99	-0.45
HR (GeneID 55806)	4	1.25	-0.45
HR (GeneID 55806)	5	-0.26	-0.45
HR (GeneID 55806)	6	-0.64	-0.45
FBXO2 (GeneID 26232)	1	-0.45	0.64
FBXO2 (GeneID 26232)	2	1.32	0.64
FBXO2 (GeneID 26232)	3	1.26	0.64
FBXO2 (GeneID 26232)	4	0.02	0.64
FBXO2 (GeneID 26232)	5	-0.02	0.64
FBXO2 (GeneID 26232)	6	2.21 (active)	0.64
GSTK1 (GeneID 373156)	1	2.19 (active)	0.485
GSTK1 (GeneID 373156)	2	-0.38	0.485
GSTK1 (GeneID 373156)	3	0.61	0.485
GSTK1 (GeneID 373156)	4	4.02 (active)	0.485
GSTK1 (GeneID 373156)	5	0.36	0.485
GSTK1 (GeneID 373156)	6	-0.02	0.485
SPINK5 (GeneID 11005)	1	0.01	0.39
SPINK5 (GeneID 11005)	2	0.6	0.39
SPINK5 (GeneID 11005)	3	0.57	0.39
SPINK5 (GeneID 11005)	4	0.21	0.39
SPINK5 (GeneID 11005)	5	-0.6	0.39
SPINK5 (GeneID 11005)	6	2.41 (active)	0.39
OFCC1 (GeneID 266553)	1	-0.84	-0.28
OFCC1 (GeneID 266553)	2	1.32	-0.28
OFCC1 (GeneID 266553)	3	-0.48	-0.28
OFCC1 (GeneID 266553)	4	0.01	-0.28
OFCC1 (GeneID 266553)	5	-0.58	-0.28
OFCC1 (GeneID 266553)	6	-0.08	-0.28
ARTN (GeneID 9048)	1	-0.08	-0.93
ARTN (GeneID 9048)	2	-1.24 (active)	-0.93
ARTN (GeneID 9048)	3	-1.02 (active)	-0.93
ARTN (GeneID 9048)	4	-0.84	-0.93
ARTN (GeneID 9048)	5	-0.11	-0.93
ARTN (GeneID 9048)	6	-1.45 (active)	-0.93
